Experimental data reported in article doi:10.1101/2022.11.06.515351.
These are yes or no findings as the source states them, for the method shown. In cells and extracts the contact can be indirect. Some results given as binding are weak or reduced against the parent protein; the word gives no strength. For some of these results: Tags and fused reporters may be left off the sequences shown.

Amino acid sequences for entries named in this document (tags omitted). A change or cut given only in a name is not applied to a line headed by its entry. Chains listed by the source or under a name are the forms on record and can include a tag or linker.
UniProt P38873: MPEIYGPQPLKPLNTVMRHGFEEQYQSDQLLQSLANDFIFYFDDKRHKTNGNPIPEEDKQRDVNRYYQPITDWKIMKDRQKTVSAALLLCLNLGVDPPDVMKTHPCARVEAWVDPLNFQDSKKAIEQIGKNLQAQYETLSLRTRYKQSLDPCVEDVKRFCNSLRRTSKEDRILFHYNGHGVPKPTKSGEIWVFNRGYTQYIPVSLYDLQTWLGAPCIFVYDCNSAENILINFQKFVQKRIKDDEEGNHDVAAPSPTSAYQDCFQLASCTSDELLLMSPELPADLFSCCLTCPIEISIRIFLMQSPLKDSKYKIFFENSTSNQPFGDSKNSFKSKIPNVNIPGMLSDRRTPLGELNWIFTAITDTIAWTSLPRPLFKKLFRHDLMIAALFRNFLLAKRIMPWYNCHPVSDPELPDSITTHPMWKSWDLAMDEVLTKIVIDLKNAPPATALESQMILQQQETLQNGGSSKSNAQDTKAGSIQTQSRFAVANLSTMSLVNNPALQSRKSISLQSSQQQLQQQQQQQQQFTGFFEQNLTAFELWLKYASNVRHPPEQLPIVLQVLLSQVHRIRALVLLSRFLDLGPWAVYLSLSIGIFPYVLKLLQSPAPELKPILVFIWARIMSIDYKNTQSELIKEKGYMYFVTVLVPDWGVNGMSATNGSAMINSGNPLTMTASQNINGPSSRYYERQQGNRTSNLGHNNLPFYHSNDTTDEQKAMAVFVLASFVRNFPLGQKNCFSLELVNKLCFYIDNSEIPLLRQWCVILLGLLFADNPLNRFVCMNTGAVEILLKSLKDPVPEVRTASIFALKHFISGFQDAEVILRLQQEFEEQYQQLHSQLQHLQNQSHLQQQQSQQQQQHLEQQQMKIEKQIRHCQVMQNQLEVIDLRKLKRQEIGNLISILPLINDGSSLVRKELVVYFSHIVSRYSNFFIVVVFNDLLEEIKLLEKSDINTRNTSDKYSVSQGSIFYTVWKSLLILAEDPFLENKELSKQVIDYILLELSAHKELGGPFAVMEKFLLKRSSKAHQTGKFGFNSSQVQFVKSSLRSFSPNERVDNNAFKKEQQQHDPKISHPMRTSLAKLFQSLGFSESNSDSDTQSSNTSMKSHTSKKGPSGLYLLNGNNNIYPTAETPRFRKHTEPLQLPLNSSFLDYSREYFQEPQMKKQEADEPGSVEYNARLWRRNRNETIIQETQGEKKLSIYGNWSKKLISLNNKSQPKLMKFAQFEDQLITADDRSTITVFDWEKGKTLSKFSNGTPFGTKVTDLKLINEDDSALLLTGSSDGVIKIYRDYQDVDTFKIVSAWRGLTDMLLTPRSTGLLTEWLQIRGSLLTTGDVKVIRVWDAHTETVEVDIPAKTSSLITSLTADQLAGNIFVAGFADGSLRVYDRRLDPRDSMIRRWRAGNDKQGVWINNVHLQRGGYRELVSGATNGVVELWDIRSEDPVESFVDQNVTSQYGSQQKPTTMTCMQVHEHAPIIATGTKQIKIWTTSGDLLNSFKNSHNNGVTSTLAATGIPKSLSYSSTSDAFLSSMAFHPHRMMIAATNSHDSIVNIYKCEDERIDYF
UniProt P35169: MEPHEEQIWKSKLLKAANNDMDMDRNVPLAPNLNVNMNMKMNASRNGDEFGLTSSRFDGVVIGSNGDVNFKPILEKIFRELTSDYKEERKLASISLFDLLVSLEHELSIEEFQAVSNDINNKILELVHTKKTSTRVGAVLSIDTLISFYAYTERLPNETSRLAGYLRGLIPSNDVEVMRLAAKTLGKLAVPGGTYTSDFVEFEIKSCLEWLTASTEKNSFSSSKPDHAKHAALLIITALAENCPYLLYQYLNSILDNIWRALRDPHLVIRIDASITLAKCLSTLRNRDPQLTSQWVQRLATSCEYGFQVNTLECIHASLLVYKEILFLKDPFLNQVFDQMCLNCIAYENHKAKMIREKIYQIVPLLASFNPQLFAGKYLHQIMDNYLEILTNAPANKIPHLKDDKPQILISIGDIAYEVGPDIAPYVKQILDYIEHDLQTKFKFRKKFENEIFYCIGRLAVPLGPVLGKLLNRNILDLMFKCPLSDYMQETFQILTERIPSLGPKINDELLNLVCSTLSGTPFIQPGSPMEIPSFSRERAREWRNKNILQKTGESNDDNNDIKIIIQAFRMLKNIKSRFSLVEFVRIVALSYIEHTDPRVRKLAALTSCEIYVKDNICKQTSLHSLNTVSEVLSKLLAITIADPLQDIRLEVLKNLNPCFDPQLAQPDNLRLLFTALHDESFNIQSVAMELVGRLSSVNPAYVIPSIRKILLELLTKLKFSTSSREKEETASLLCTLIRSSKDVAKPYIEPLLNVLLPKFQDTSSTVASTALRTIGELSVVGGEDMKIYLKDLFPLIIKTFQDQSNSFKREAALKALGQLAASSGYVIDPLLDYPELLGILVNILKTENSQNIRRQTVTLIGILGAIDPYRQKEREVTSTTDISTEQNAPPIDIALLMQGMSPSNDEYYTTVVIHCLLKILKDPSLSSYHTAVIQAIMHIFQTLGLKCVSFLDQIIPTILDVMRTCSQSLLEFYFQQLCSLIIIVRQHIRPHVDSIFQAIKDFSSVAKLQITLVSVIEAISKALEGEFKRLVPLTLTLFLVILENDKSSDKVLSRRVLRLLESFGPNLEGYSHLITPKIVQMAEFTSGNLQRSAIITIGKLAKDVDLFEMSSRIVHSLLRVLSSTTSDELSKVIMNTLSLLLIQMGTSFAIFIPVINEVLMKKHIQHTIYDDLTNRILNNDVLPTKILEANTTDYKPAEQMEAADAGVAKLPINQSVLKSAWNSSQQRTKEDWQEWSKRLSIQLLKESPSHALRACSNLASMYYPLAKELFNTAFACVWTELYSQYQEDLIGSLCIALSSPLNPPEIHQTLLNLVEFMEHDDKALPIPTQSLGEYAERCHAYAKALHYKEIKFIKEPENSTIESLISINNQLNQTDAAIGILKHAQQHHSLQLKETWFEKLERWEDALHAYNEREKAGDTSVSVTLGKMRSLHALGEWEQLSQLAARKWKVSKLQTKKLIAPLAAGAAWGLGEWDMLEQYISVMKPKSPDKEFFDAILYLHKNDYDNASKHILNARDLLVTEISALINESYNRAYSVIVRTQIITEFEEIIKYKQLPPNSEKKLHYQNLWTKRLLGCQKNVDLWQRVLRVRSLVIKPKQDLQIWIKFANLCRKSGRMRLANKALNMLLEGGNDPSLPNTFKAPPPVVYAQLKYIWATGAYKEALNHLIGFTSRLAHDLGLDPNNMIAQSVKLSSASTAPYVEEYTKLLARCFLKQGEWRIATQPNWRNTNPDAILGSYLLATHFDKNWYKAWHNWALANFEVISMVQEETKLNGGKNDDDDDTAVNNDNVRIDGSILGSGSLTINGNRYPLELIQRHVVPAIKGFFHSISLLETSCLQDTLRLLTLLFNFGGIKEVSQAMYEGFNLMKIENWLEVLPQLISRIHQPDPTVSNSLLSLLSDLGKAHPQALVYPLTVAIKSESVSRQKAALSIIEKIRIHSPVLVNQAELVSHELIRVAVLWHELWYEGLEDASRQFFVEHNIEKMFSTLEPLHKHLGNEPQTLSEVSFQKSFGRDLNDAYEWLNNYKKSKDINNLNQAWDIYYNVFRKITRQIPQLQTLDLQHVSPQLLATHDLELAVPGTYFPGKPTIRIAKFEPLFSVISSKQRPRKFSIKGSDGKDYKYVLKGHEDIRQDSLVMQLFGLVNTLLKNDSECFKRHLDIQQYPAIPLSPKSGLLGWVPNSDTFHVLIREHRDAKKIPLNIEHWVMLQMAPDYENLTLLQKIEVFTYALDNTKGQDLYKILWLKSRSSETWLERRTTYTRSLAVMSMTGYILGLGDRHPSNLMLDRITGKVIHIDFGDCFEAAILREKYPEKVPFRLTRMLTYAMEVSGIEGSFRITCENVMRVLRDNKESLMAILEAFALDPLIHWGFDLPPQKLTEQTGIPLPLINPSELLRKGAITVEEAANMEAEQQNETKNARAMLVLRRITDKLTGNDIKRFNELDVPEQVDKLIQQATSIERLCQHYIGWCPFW
Tor1 R2105/R2107 alanine mutant (P35169, form named): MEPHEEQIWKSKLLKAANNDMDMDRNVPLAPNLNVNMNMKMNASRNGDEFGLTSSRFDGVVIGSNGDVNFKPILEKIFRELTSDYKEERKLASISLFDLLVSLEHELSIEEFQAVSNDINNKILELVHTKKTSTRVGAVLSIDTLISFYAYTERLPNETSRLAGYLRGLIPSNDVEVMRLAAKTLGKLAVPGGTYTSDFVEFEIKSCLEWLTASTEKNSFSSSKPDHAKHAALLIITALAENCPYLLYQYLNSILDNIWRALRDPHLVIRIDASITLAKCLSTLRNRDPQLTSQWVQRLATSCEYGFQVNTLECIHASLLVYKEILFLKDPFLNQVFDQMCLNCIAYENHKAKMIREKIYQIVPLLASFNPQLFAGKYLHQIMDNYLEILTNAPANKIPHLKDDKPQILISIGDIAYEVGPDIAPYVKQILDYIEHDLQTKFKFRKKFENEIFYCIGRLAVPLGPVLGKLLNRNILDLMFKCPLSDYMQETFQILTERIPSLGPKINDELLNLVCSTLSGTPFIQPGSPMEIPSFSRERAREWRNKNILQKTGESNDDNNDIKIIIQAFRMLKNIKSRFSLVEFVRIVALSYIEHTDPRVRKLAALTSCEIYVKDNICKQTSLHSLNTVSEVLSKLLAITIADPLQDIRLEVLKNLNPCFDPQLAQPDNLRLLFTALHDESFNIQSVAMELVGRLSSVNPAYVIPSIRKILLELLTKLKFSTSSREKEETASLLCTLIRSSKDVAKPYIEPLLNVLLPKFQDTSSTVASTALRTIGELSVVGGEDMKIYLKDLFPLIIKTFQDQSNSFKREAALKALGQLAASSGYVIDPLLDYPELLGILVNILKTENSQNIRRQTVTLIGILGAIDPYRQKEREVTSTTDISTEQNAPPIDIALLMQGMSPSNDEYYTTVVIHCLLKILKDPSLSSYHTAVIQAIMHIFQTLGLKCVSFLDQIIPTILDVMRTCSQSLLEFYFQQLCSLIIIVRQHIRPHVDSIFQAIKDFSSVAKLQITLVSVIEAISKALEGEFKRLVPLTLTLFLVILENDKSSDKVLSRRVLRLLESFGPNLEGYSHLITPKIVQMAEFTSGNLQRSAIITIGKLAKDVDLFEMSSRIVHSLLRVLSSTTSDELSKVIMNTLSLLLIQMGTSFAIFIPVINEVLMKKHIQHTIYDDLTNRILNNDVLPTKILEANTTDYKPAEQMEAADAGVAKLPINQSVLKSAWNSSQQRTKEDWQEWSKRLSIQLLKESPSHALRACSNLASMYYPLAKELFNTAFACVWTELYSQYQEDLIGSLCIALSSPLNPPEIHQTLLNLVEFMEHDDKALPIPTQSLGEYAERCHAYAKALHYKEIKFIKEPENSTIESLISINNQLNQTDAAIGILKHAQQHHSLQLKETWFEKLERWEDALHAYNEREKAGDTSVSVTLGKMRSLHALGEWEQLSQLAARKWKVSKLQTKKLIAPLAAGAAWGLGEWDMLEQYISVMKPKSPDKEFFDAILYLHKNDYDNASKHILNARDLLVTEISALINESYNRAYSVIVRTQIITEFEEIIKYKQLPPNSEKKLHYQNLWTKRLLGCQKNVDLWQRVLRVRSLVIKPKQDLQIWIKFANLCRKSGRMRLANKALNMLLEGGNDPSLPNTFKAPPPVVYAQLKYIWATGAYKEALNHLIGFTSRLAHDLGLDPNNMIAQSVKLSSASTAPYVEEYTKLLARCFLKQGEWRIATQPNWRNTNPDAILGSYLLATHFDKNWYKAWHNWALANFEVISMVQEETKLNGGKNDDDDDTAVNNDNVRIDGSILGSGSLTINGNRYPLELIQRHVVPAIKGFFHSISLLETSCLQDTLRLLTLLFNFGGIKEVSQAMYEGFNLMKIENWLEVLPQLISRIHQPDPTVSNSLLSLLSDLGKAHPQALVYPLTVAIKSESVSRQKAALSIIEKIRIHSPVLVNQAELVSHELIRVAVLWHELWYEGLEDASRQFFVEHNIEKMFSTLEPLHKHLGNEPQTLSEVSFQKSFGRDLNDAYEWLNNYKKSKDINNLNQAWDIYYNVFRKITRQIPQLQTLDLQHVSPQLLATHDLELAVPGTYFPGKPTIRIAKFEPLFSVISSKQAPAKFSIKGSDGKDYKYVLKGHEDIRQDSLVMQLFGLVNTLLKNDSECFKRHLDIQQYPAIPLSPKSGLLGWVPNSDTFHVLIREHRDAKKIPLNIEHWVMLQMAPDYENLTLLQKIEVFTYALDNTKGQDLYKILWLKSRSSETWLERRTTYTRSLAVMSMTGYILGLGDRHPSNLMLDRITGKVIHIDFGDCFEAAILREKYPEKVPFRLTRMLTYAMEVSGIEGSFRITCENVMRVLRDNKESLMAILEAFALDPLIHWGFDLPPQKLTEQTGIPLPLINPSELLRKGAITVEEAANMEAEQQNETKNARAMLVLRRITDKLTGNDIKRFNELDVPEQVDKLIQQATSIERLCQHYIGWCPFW

Legend:
Assay in all cases: co-IP
[1] = biological target: Kog1-HA3 (yeast TORC1 subunit Kog1, genomically HA3-tagged) (yeast) (UniProt P38873)
[2] = biological target: T1, Tco89-HA3 (yeast TORC1 subunit Tco89, genomically HA3-tagged) (yeast) (UniProt Q08921)
T1 sequence: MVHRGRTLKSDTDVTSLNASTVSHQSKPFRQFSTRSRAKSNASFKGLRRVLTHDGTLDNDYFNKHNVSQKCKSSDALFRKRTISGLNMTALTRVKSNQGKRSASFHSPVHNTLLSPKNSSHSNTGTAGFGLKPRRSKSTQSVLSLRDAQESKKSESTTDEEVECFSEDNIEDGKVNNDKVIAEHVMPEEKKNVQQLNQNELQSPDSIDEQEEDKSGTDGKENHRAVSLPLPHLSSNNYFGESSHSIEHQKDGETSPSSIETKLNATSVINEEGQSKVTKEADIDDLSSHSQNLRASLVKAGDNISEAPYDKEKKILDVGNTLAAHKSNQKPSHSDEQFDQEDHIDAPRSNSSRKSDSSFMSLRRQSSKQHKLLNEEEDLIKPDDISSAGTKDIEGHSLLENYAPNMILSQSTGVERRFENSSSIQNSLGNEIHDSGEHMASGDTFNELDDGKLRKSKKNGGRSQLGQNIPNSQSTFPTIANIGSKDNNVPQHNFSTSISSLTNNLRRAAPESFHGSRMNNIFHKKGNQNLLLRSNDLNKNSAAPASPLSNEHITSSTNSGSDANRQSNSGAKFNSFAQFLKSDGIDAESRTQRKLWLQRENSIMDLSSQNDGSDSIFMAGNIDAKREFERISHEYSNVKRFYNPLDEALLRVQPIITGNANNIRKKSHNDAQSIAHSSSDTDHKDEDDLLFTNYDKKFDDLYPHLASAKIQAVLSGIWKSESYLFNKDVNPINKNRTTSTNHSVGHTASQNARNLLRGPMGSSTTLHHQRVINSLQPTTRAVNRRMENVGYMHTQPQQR

[3] = biological target: Tor1 R2105/R2107 alanine mutant (yeast) (UniProt P35169)

Row | Substance | binding [1] | binding [2] | binding [3]
1 | Acc1-myc13 (yeast acetyl-CoA carboxylase, genomically tagged) (from UniProt Q00955 1-2233) (enzyme) | binds | binds | –
2 | Fas1-myc13 (Fas1 subunit of the yeast fatty acid synthase complex, genomically tagged) (from UniProt P07149 1-2051) (enzyme) | binds | – | –
3 | Kog1 (construct not stated, co-immunoprecipitation with Tor1) (from UniProt P38873 1-1557) | – | – | binds
